Article PMC9455612
Results are given in words; binding and its absence hold for the method and conditions named. In cells and extracts the contact can be indirect. Where a sequence is shown, tags or fusion partners need not be part of it.

Molecular target: T1, NTCP V5His (UniProt Q14973)
T1 sequence: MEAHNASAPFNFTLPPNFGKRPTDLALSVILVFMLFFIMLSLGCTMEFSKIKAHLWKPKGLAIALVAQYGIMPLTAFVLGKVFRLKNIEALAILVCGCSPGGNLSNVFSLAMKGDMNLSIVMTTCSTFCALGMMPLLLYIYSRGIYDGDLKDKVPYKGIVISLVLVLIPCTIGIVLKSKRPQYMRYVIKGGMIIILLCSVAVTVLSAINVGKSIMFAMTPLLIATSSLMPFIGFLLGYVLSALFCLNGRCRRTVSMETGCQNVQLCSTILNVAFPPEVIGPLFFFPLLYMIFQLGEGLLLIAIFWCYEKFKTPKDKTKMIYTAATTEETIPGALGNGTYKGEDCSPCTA
Assay: pull-down; NTCP V5-His from transfected 293T lysate held on Ni-NTA agarose, overnight at 4 °C; 20 mM NaPO4 pH 8.0, 0.3 M NaCl, 10% glycerol, 0.1% Triton X-100; eluted with 0.5 M imidazole; input, unbound and bound fractions blotted with anti-V5 and anti-ATP5B

Q: Which binding does the source give for “ATP5B (cellular, 293T) (from UniProt P06576 48-529)” here?
A: The binding was “no binding”.
